About 6,200 (1.8%) of roughly 340,000 compounds were called active. The inconclusive results got no clear call from the source; some entries with a clear call stand among them for comparison. The call rests on the fitted dose curve; in most records, active means well fitted activation curve with a large enough effect; inconclusive means small, poorly fitted or top-dose-only effect; inactive means no such curve, though single readings can be large or run the other way. Potencies beside an inconclusive call are fits to weak or partial responses and may not hold up.
test: A quantitative high throughput screen for small molecules that induce DNA re-replication in SW480 colon adenocarcinoma cells.; further: nearly all actives have a fitted effect of over 55% in size; settings: Hoechst DNA content imaging, 48 h; series mostly up to 46.1 µM
Summary of the method: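 250 cells/well; 23 nL cpd via pin tool; 48 hr, 37 C, 5% CO2; Hoechst 40 min; imager read of total nuclear intensity, ex 405/em 500-530 nm.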
Potency means the concentration at half of the fitted maximal effect.

| Structure (SMILES) | Potency |
| --- | --- |
| Nc1nc2ccccc2n1Cc1ccc(Cl)c(Cl)c1 | inconclusive: 23.1 µM [activator, single point] |
| COc1cc(OC)c(OC)cc1CN1CCN(Cc2ccc(C(F)(F)F)cc2)CC1 | inconclusive: 5.8 µM [activator, full curve, poor fit] |
| O=C1CN(c2nnnn2-c2ccccc2)CCN1 | inconclusive: 0.058 µM [activator, full curve, poor fit] |
| C=CCn1c(-c2ccccc2)c[nH]c1=S | inconclusive: 23.1 µM [activator, single point] |
| CCOC(=O)C1CCCN(C/C(O)=C(\C#N)c2nc(-c3ccc(Cl)cc3)cs2)C1 (configuration not stated) | inactive |
| CC(=O)c1cc(CN2CCCCC2)cc(OC(C)C)c1 | inconclusive: 0.461 µM [activator, full curve, poor fit] |
| COc1cccc(NC(=S)NN2C(C)CCCC2C)c1 (configuration not stated) | inactive |
| NS(=O)(=O)c1cccc(NC(=O)CSc2nnc(-c3ccccc3F)n2C2CC2)c1 | inconclusive: 29.1 µM [activator, single point] |
| Cc1ccc(-c2nnc(SCC(=O)NC3CC3)o2)cc1 | inactive |
| C#CCN1C(=O)C(O)(CC(=O)c2cccc(OC)c2)c2ccccc21 (configuration not stated) | inconclusive: 29.1 µM [activator, single point] |
| CCOc1cc(CNCCCN2CCOCC2)cc(Cl)c1OCC(=O)NC(C)(C)C | inconclusive: 29.1 µM [activator, single point] |
| CCCOc1ccc(NC(=O)C2CC(=O)N/C(=N/N=C(C)/C=C/c3ccc(N(C)C)cc3)S2)cc1 (configuration not stated) | active: 18.4 µM |
| COc1ccc(-c2csc3nc(-c4ccccc4F)oc(=O)c23)cc1OC | inconclusive: 18.4 µM [activator, single point] |
| COc1ccc(N2C(N)=NC(N)=NC2(C)C)cc1 | inactive |
| NCCNC(=O)c1c(O)c2cccc3c2n(c1=O)CCC3 | inconclusive: 29.1 µM [activator, single point] |
| Cc1ccc(NC(=O)c2cncc(Br)c2)nc1 | inactive |
| COc1ccccc1-c1nnc(SCC(=O)Nc2ccc(N3CCOCC3)cc2)n1C | inconclusive: 23.1 µM [activator, single point] |
| CCn1c(=O)cc(OCC(=O)NCCCN2CC(C)CC(C)C2)c2ccccc21 (configuration not stated) | inactive |
| O=C(O)c1ccc2ncsc2c1 | inconclusive: 29.1 µM [activator, single point] |
| COc1ccc(Cn2nnnc2CN2CCC(O)(c3ccc(F)cc3)CC2)cc1 | inactive |
| O=[N+]([O-])c1cccc(CSc2ncnc3ccccc23)c1 | inconclusive: 0.82 µM [activator, single point] |
| Brc1ccc(-c2nc3ncccn3c2NC2CCCCC2)o1 | inactive |
| O=C1CCN(S(=O)(=O)c2cc(C(F)(F)F)ccc2Cl)CC1 | inactive |
| O=C(CSc1nnc(CNC(=O)c2ccco2)o1)Nc1nc2ccccc2s1 | inconclusive: 4.61 µM [activator, full curve, poor fit] |

| Structure (SMILES) | Potency |
| --- | --- |
| COc1cc(/C=N/NC(=O)c2sc3nc(C)cc(C)c3c2N)ccc1O | inconclusive: 18.4 µM [activator, single point] |
| CCN1CCN(S(=O)(=O)c2ccc(Cl)c(C(=O)N(C)Cc3ccc(C(C)(C)C)cc3)c2)CC1 | inactive |
| CC1CN(C(=O)c2ccc(Oc3ccccc3)cc2)CC(C)O1 (configuration not stated) | inconclusive: 0.184 µM [activator, single point] |
| CC(C)Cc1nnc(NC(=O)CC(C)c2ccccc2)s1 (configuration not stated) | inconclusive: 0.651 µM [activator, full curve, poor fit] |
| COc1ccc(OC(C)C(=O)Nc2ccccc2C(F)(F)F)cc1 (configuration not stated) | inconclusive: 18.4 µM [activator, partial curve, poor fit] |
| COc1cc(NC(=O)c2cc(-c3ccccc3)on2)cc(OC)c1OC | inactive |
| CCC1(CC)N=C(c2ccccc2)C(=S)N1 | inactive |
| CC(C)CC(=O)/C=C/n1c(=S)oc2ccccc21 | active: 8.2 µM |
| NC(=O)CSc1nnc(Cc2ccc3c(c2)OCO3)n1C1CCCCC1 | inactive |
| CCOC(=O)C1=C(C)C/C(=N\NC(=O)c2ccccc2O)CC1 | active: 18.4 µM |
| CCCCOC(=O)c1sc2nc(C)cc(C)c2c1N | inconclusive: 25.9 µM [activator, single point] |
| CC(C)NC(=O)CN1CCN(C(=O)CCl)CC1 | inactive |
| CCc1cccc(C)c1NC(=S)NCc1ccc2[nH]c(C)cc2c1 | active: 13 µM |
| CCOC(=O)[C@@H]1[C@H]2COc3cc(OC)ccc3[C@H]2N2C(=O)N(c3cccc(Cl)c3)C(=O)[C@]12C | inconclusive: 18.4 µM [activator, partial curve, poor fit] |
| CCOC(=O)C1=C(COC(=O)CCS(=O)(=O)c2ccc(C)cc2)NC(=O)NC1C (configuration not stated) | inconclusive: 29.1 µM [activator, single point] |
| O=C(NCC1CCCO1)c1cccc(S(=O)(=O)Nc2ccc(SC(F)F)cc2)c1 (configuration not stated) | inactive |
| CN(C)c1nc(/C=C(\C#N)C(N)=O)c(Cl)n1-c1ccc(F)cc1 | inconclusive: 3.26 µM [activator, full curve, poor fit] |
| COC(=O)[C@]1(Cc2ccccc2)N[C@H](CN(C)S(=O)(=O)c2ccc(OC)cc2)[C@@H]2C(=O)N(C)C(=O)[C@@H]21 | inconclusive: 0.82 µM [activator, full curve] |
| COc1ccc(C(CCNCc2ccc(N(C)C)cc2)c2ccccc2)cc1 (configuration not stated) | active: 18.4 µM |
| CC[n+]1c(/C=C/Nc2ccccc2)sc2ccccc21 | inconclusive: 16.4 µM [activator, partial curve, poor fit] |
| COc1ccccc1C(=O)Nc1ccnn1C1CCN(Cc2cc(C)c(C)cc2C)CC1 | inconclusive: 29.1 µM [activator, single point] |
| COCCCNC(=O)/C=C1\Sc2ccccc2N(Cc2ccccc2F)C1=O | active: 18.4 µM |
| COc1ccccc1NS(=O)(=O)c1cccc(NC(=O)Nc2ccc(Cl)cc2)c1 | inconclusive: 16.4 µM [activator, single point] |

In a second layout: results already given.
Structure (SMILES)	Potency
CCC1(CC)N=C(c2ccccc2)C(=S)N1	inactive
NC(=O)CSc1nnc(Cc2ccc3c(c2)OCO3)n1C1CCCCC1	inactive
CCCCOC(=O)c1sc2nc(C)cc(C)c2c1N	inconclusive: 25.9 µM [activator, single point]
COc1ccccc1C(=O)Nc1ccnn1C1CCN(Cc2cc(C)c(C)cc2C)CC1	inconclusive: 29.1 µM [activator, single point]

Reference: PubChem BioAssay AID624297 (National Center for Advancing Translational Sciences (NCATS), 2012)
